Experimental data taken from patent publication US20240141072A1.
These are yes or no findings as the source states them, for the method shown. Some binding calls cover weakened binding; strength is not graded here.

Biological target: cynomolgus DLL3 (cynomolgus)
Experiment: Octet BLI

| binding | Binder |
| --- | --- |
| binds | 4H011 anti-DLL3 trispecific protein (protein, not shown: large carriers) EVQLVESGGGLVQPGGSLTLSCAASGSSVSRLSMAWYRQAPGKKRELVAGISVDGSTDYIDSVKGRFTISRDNAKNSVYLQMNSLRAEDTAVYYCYAYRWTTRLTYWGQGTLVTVSS |
| binds | 1H012 anti-DLL3 trispecific protein (protein, not shown: large carriers) EVQLVESGGGLVQPGGSLTLSCVASGSTSSINAMGWYRRAPGKQRELVAGISSDGSKVYVDSVKGRFTISRDNAKNSVYLQMNSLRAEDTAVYYCYYFRTVSGSSMPYWGQGTLVTVSS |
